This note sets out measurements from doi:10.1101/2025.08.22.671827.

Results are given in words; binding and its absence hold for the method and conditions named. In cells and extracts the contact can be indirect. Some binding calls cover weakened binding; strength is not graded here.

The experiment deals with T1, Full-length wild-type Drs2 (yeast) (UniProt P39524).
T1 sequence: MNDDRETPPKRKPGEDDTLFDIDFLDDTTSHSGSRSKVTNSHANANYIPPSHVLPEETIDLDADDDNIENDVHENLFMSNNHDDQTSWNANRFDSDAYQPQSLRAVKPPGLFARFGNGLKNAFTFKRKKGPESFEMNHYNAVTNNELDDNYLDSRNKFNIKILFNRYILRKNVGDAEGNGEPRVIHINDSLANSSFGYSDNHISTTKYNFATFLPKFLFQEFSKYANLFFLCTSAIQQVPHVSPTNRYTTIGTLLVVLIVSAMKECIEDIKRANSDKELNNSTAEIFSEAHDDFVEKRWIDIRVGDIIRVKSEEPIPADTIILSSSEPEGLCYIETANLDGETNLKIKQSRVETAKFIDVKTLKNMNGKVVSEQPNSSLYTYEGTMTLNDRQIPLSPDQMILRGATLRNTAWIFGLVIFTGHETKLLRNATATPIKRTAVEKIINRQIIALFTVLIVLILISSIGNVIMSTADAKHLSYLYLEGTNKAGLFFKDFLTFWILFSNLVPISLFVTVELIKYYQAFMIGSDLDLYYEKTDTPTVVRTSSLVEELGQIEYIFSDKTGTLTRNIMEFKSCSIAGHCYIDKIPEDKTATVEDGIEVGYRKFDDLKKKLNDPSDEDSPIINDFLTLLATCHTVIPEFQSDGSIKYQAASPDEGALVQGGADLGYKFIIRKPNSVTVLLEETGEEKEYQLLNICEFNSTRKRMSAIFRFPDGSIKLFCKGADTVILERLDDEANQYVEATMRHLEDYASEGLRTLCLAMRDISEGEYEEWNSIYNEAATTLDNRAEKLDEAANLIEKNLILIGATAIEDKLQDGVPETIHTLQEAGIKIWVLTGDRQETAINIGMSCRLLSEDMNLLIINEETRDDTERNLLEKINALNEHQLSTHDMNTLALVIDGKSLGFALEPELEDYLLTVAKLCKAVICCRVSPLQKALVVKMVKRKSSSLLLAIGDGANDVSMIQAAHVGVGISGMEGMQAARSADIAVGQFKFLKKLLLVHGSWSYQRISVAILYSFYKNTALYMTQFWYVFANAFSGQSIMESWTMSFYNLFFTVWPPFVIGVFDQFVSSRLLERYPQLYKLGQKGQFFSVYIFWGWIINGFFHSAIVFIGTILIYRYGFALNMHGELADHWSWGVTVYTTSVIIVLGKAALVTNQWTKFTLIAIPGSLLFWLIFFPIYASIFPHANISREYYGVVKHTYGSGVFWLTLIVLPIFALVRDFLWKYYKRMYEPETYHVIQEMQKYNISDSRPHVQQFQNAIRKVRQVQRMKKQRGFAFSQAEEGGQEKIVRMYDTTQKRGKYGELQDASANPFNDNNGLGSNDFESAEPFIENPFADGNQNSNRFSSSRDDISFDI
The experiment can be described thus: pull-down + SEC.

B1: Cdc50 (protein, UniProt P25656 1-391)
chain: MVSLFKRGKAPPLTKEGPTSKKPPNTAFRQQRLKAWQPILSPQSVLPLLIFVACIFTPIGIGLIVSATKVQDLTIDYSHCDTKASTTAFEDIPKKYIKYHFKSKVENKPQWRLTENENGEQSCELQFEIPNDIKKSIFIYYKITNFYQNHRRYVQSFDTKQILGEPIKKDDLDTSCSPIRSREDKIIYPCGLIANSMFNDTFSQVLSGIDDTEDYNLTNKHISWSIDRHRFKTTKYNASDIVPPPNWMKKYPDGYTDENLPDIHTWEEFQVWMRTAAFPKFYKLTLKNESASLPKGKYQMNIELNYPISLFGGTKSFVLTTNGAIGGRNMSLGVLYLIVAGLCALFGIIFLVKLIFQPRAMGDHTYLNFDDEENEDYEDVHAENTTLREIL
On to B1, for which the binding entry is “binds”.
